Test results as given in the supplement of paper PMC12067093, “Discovery and optimisation of a covalent ligand for TRIM25 and its application to targeted protein ubiquitination” (Chemical Science, 2025).
This is one part of the list.

The chains behind the UniProt entries cited, without tags or fusion partners. Where a name states a change or a piece, a line headed by the entry shows the natural chain unless it says otherwise.
UniProt Q5GLZ8: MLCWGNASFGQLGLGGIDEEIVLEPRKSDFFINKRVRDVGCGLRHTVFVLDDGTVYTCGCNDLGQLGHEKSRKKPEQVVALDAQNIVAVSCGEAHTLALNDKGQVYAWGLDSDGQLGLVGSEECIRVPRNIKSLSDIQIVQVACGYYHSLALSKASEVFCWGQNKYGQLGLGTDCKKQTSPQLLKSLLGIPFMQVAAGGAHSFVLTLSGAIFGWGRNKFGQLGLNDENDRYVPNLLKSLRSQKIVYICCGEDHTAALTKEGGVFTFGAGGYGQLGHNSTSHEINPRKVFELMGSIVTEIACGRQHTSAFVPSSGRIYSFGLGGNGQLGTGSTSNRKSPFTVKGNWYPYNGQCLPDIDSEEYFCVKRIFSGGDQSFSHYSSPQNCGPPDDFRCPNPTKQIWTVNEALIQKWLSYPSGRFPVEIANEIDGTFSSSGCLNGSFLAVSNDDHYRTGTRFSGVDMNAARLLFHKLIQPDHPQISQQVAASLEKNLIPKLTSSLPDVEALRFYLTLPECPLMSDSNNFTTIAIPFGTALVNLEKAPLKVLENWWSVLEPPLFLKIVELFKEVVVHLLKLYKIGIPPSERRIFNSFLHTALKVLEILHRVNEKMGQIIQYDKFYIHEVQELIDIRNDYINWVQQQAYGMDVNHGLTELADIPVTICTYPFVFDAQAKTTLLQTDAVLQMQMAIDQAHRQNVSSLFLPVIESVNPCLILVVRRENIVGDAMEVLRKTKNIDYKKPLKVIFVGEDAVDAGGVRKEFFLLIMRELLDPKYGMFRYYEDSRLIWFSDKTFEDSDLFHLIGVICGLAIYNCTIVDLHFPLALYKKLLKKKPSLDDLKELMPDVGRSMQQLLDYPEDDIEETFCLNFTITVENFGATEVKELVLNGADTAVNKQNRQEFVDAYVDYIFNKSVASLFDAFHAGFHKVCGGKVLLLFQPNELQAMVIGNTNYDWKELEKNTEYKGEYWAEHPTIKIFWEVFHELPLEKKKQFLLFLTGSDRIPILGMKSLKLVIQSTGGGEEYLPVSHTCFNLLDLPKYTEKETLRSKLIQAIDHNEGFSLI
UniProt Q9ULT8: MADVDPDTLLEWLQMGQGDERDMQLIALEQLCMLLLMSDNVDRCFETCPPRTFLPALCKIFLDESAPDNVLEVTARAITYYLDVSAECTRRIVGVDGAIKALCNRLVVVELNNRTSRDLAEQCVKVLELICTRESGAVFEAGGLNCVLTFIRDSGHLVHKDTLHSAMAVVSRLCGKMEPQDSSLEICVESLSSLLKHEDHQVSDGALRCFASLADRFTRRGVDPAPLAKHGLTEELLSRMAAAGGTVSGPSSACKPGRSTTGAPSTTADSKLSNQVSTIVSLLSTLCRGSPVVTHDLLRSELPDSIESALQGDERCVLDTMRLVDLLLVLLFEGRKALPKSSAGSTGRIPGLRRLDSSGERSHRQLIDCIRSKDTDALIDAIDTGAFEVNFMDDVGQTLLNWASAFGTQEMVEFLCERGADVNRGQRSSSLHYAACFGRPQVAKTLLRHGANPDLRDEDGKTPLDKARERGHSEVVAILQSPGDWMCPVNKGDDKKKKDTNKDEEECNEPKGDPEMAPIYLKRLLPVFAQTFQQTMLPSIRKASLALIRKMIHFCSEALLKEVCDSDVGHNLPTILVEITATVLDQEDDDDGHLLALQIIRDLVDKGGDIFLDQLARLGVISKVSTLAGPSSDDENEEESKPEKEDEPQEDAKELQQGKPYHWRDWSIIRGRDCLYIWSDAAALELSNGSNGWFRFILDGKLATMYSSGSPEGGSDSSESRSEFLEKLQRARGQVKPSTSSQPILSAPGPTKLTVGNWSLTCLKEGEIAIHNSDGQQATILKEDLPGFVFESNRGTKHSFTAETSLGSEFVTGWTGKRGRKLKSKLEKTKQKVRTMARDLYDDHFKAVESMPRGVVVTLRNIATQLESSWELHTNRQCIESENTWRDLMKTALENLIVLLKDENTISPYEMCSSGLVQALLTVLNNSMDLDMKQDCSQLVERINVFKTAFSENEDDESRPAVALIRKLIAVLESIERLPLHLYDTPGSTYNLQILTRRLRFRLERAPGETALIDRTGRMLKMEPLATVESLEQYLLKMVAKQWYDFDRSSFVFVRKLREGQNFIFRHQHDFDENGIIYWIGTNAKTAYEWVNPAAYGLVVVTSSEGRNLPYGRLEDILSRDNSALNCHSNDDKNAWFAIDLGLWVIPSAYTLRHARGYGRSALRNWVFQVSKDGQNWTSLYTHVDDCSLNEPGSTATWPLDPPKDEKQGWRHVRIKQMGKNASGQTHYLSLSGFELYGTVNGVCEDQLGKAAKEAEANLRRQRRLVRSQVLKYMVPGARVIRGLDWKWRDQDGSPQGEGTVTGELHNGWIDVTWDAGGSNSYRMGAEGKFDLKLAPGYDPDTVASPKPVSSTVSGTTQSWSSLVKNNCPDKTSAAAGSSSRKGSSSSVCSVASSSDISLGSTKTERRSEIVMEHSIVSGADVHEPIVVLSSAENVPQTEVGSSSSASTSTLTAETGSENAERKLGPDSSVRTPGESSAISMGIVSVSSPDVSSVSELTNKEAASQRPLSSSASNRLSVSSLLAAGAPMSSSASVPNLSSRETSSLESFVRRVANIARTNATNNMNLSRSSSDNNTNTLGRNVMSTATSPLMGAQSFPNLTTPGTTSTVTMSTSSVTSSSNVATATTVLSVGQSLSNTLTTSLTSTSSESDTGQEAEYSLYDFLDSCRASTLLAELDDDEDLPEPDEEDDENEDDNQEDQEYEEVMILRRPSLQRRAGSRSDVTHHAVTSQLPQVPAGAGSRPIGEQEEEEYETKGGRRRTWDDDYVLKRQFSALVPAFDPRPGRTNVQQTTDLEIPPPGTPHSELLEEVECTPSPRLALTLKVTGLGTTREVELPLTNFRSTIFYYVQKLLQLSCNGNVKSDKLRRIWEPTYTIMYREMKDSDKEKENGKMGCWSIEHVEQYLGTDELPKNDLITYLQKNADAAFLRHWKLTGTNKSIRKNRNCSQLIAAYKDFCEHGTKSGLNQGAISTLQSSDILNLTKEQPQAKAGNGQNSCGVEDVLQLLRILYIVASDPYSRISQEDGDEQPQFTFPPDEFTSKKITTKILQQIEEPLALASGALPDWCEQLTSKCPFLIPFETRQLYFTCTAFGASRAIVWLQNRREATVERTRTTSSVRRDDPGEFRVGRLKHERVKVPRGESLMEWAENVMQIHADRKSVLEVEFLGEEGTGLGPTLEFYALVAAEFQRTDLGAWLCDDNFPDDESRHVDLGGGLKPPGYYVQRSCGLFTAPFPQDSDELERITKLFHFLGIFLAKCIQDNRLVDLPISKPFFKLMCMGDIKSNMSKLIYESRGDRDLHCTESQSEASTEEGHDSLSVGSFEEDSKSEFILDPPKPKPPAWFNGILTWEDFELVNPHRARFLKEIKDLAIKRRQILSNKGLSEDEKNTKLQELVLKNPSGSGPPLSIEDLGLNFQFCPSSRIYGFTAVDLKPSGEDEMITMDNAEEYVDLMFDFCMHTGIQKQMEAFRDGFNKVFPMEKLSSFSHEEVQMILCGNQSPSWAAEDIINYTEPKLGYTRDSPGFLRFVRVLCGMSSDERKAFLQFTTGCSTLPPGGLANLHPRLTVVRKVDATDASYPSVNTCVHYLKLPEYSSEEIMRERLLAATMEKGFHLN
UniProt P04222, whole entry, looked up: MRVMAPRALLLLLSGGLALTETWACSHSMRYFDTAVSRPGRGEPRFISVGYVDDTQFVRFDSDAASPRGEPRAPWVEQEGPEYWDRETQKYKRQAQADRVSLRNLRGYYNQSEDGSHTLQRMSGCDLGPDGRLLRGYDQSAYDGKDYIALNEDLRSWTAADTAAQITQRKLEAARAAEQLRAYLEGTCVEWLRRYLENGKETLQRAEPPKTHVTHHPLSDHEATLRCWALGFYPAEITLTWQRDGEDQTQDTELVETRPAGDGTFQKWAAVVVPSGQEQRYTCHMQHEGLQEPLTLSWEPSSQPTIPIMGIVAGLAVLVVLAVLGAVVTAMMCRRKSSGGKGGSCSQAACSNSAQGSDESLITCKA
UniProt P51858: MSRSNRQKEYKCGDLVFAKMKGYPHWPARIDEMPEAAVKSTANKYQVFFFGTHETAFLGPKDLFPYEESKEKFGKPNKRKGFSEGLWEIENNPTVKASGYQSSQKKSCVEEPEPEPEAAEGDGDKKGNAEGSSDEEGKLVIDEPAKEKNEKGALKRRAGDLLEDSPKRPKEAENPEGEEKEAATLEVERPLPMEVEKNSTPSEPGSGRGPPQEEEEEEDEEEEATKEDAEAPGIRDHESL
UniProt P53701: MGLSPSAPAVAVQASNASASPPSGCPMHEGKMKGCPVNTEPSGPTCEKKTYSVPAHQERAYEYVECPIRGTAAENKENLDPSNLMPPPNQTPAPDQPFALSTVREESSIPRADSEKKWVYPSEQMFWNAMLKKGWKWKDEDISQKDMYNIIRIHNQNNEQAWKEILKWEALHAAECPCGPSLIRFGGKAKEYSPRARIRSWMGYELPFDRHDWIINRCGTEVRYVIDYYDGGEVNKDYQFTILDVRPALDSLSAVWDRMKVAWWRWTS
UniProt Q9UBN7: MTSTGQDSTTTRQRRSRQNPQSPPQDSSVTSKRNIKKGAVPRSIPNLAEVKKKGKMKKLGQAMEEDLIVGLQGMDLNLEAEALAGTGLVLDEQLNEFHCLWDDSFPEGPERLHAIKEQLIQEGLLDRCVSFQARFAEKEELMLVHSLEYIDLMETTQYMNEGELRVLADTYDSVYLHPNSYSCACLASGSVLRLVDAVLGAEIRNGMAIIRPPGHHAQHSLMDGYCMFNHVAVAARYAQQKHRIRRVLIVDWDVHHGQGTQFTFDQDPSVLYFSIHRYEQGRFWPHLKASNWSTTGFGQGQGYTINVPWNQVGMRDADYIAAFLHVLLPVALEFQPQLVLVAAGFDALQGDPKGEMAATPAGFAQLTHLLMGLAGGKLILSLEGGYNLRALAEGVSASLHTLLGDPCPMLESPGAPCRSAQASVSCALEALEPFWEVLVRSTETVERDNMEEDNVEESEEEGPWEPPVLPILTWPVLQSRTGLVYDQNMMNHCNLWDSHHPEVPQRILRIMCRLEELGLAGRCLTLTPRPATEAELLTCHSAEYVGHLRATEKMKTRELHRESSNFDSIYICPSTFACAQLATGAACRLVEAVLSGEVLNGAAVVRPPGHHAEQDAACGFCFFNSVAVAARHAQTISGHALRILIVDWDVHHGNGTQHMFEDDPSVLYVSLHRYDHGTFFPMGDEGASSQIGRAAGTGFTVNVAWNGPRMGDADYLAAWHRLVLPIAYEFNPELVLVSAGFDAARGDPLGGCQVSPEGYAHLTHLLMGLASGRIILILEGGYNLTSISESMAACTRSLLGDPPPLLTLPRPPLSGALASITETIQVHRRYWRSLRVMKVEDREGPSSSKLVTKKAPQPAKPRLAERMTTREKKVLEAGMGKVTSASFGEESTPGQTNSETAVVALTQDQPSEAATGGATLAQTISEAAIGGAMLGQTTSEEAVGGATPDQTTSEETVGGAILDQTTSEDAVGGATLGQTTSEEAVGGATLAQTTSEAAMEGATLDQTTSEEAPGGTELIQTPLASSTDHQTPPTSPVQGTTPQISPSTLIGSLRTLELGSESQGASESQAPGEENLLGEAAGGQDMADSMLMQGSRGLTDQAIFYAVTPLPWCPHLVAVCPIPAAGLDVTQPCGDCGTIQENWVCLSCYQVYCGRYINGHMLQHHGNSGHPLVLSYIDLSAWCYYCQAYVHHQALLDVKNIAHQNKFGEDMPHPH
UniProt O14964, whole entry, looked up: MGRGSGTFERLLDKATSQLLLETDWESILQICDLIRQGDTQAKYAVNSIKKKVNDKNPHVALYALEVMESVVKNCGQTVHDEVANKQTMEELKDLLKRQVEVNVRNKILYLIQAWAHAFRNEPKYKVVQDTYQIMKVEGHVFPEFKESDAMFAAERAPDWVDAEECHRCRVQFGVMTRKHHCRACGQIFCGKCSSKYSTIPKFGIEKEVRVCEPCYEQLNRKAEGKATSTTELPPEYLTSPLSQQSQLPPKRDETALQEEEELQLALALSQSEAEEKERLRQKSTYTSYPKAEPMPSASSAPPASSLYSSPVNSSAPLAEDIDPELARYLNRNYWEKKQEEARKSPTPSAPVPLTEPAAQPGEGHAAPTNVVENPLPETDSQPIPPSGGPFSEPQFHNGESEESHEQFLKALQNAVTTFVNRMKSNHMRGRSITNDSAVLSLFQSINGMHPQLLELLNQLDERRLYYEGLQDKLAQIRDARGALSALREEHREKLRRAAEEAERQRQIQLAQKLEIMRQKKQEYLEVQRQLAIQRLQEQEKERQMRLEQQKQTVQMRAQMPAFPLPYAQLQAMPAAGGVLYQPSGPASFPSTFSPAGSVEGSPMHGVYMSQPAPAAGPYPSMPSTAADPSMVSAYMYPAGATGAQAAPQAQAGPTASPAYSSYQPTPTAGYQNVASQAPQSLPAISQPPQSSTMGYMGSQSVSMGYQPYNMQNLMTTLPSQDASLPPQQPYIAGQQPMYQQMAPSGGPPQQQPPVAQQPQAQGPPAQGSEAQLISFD

Compound: CC1Cc2ccccc2N1C(=O)C1CCCN(C1)C(=O)CCl (mixture of isomers) [TRIM25 ligand 11 (diastereomer mixture)]
Assay: probe-labelled cysteine peptide fold change vs DMSO (competition) (log2 fold change); higher = less target engagement (more negative = stronger competition)
Conditions: THP-1, incubation time: 4 h
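Further: competitive chemoproteomic profiling in live THP-1 cells with an iodoacetamide desthiobiotin (IA-DTB) probe, comparing probe-labelled peptide intensities in compound-treated cells against DMSO-treated controls.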

Target	probe-labelled cysteine peptide fold change (10 µM)	probe-labelled cysteine peptide fold change (50 µM)
HCFC1_P51610_1872_VAGINACGR (UniProt P51610)	0.0399	0.053
HGH1_Q9BTY7_51_HVLALTGCGPGR (UniProt Q9BTY7)	0.187	0.171
HERC2_O95714_3865_VLVALACDLELDTLPCCAETHK (UniProt O95714)	-0.19	0.12
HIF1AN_Q9NWT6_216+236_CILFPPDQFECLYPYPVHHPCDR (UniProt Q9NWT6)	0.173	0.147
HLA-DRA_P01903_132_EPNVLICFIDK	0.0291	0.183
HLTF_Q14527_780_LILSSGSDEECAICLDSLTVPVITHCAHVFCK (UniProt Q14527)	-0.0046	-0.0556
HMBS_P08397_114_DLPTVLPPGFTIGAICK (UniProt P08397)	0.000187	-0.00857
HERC4_Q5GLZ8_175_YGQLGLGTDCK (UniProt Q5GLZ8)	0.042	0.0507
HCFC1_P51610_353_AWNNQVCCK (UniProt P51610)	-0.0303	0.0544
HEATR3_Q7Z4Q2_464_KMNTIQCR (UniProt Q7Z4Q2)	-0.136	-0.103
HERC1_Q15751_1941_CSSGIPLVGNLR (UniProt Q15751)	-0.0408	-0.0993
HLA-DRA_P01903_188_KFHYLPFLPSTEDVYDCR	-0.0824	0.0791
HDLBP_Q00341_878_RIQEIIEDLEAQVTLECAIPQK (UniProt Q00341)	-0.0308	-0.109
HECTD4_Q9Y4D8_757_AMWGFACTVR (UniProt Q9Y4D8)	0.0189	0.28
HLTF_Q14527_812_NDIHEDNLLECPPEELAR (UniProt Q14527)	0.229	0.134
HELZ_P42694_601_LPLCEMHYALDR (UniProt P42694)	0.0449	0.0767
HDHD2_Q9H0R4_194+206_GTGCEPEEAVMIGDDCRDDVGGAQDVGMLGILVK (UniProt Q9H0R4)	0.128	-0.396
HECTD1_Q9ULT8_762_LTVGNWSLTCLK (UniProt Q9ULT8)	0.0153	0.094
HECTD4_Q9Y4D8_2097_VYFTYCGQR (UniProt Q9Y4D8)	0.00193	0.145
HK2_P52789_909_GAALITAVACR (UniProt P52789)	-0.0724	0.0933
HDAC2_Q92769_13_KVCYYYDGDIGNYYYGQGHPMKPHR (UniProt Q92769)	-0.431	-0.357

Target	probe-labelled cysteine peptide fold change (10 µM)	probe-labelled cysteine peptide fold change (50 µM)
HCFC1_P51610_1886+1895_TCLPGFPGAPCAIK (UniProt P51610)	0.111	-0.101
HK3_P52790_190_CSGVEGQDVVQLLR (UniProt P52790)	0.136	-0.102
HDAC8_Q9BY41_352_TLSSEIPDHEFFTAYGPDYVLEITPSCRPDR (UniProt Q9BY41)	-0.222	0.0231
HERC4_Q5GLZ8_392_CPNPTK (UniProt Q5GLZ8)	0.045	-0.0661
HCFC2_Q9Y5Z7_215_MYVFGGMCGAR (UniProt Q9Y5Z7)	-0.0963	-0.113
HIP1_O00291_613_LASTEESMCQLAK (UniProt O00291)	-0.157	-0.31
HECTD1_Q9ULT8_254_MAAAGGTVSGPSSACKPGR (UniProt Q9ULT8)	0.0653	-0.071
HELLS_Q9NRZ9_836_ILENSEDSSPECLF (UniProt Q9NRZ9)	0.112	-0.291
HBS1L_Q9Y450_491_LCVSDVFK (UniProt Q9Y450)	0.0459	0.0956
HLA-C_P04222_345_GGSCSQAASSNSAQGSDESLIACK (UniProt P04222)	0.0789	0.041
HECTD3_Q5T447_356_IVECRDDGIDVR (UniProt Q5T447)	0.0335	0.157
HERC4_Q5GLZ8_144_SLSDIQIVQVACGYYHSLALSK (UniProt Q5GLZ8)	-0.108	-0.0712
HLCS_P50747_375_EILTTLGLSCDMK (UniProt P50747)	-0.121	-0.305
HDAC5_Q9UQL6_696_HQCMCGNTHVHPEHAGR (UniProt Q9UQL6)	0.0792	0.0793
HMBS_P08397_261_HLEGGCSVPVAVHTAMK (UniProt P08397)	0.00236	-0.101
HCFC2_Q9Y5Z7_659_VAAINGCGIGPFSK (UniProt Q9Y5Z7)	-0.0264	-0.199
HDAC1_Q13547_273_LGCFNLTIK (UniProt Q13547)	-0.0483	0.18
HELB_Q8NG08_368_AIAFSICDLMK (UniProt Q8NG08)	0.0413	-0.0148
HERC1_Q15751_3002_RNHPGCGR (UniProt Q15751)	0.288	0.287
HLA-DRB1_P04229_59_CIYNQEESVR (UniProt P04229)	0.0863	0.0381
HCK_P08631_48_TETSASPHCPVYVPDPTSTIK (UniProt P08631)	0.136	-0.0792

Target	probe-labelled cysteine peptide fold change (10 µM)	probe-labelled cysteine peptide fold change (50 µM)
HDGF_P51858_108_KSCVEEPEPEPEAAEGDGDKK (UniProt P51858)	-0.541	-0.677
HEATR6_Q6AI08_426_QGALVCFLSTIK (UniProt Q6AI08)	0.0666	0.16
HECTD1_Q9ULT8_1127_DNSALNCHSNDDK (UniProt Q9ULT8)	-0.0216	-0.0197
HCCS_P53701_176+178_WEALHAAECPCGPSLIR (UniProt P53701)	-0.0972	-0.18
HDGFL2_Q7Z4V5-2_631_CGSSEDLHDVR (UniProt Q7Z4V5)	-0.145	-0.267
HERC2_O95714_3193_GGSEGCNIPQNIER (UniProt O95714)	0.0878	-0.0956
HIRA_P54198_867_QDSLAQCADFR (UniProt P54198)	0.0563	-0.0265
HK2_P52789_386_SASLCAATLAAVLQR (UniProt P52789)	-0.197	0.107
HK1_P19367_813_AILQQLGLNSTCDDSILVK (UniProt P19367)	0.12	0.0879
HEATR1_Q9H583_631_SGICSLHPLLR (UniProt Q9H583)	0.186	0.109
HDAC1_Q13547_12_VCYYYDGDVGNYYYGQGHPMKPHR (UniProt Q13547)	-0.265	-0.227
HDAC4_P56524_667_HQCTCGSSSSHPEHAGR (UniProt P56524)	0.349	0.0146
HDAC6_Q9UBN7_539_CLTLTPRPATEAELLTCHSAEYVGHLR (UniProt Q9UBN7)	-0.144	-0.0793
HDGF_P51858_108_SCVEEPEPEPEAAEGDGDKK (UniProt P51858)	-0.212	-0.27
HDAC10_Q969S8_23_LLWDDPECEIERPER (UniProt Q969S8)	-0.046	-0.127
HEXIM2_Q96MH2_80_TQSPGGCSAEAVLAR (UniProt Q96MH2)	0.0876	-0.497
HCCS_P53701_46_GCPVNTEPSGPTCEK (UniProt P53701)	-0.174	-0.169
HEATR1_Q9H583_1899_AQHSENDLEEVGKTENCIIDCLVAMVVK (UniProt Q9H583)	0.0186	0.268
HERC2_O95714_2609_DGLHDLNVQCDWQQK (UniProt O95714)	-0.0461	0.0197
HCFC1_P51610_326_AGHCAVAINTR (UniProt P51610)	0.0333	0.112
HECTD1_Q9ULT8_1944_NCSQLIAAYK (UniProt Q9ULT8)	0.027	0.0693

Part of the list above in another layout:
Target,probe-labelled cysteine peptide fold change (10 µM),probe-labelled cysteine peptide fold change (50 µM)
HERC2_O95714_3193_GGSEGCNIPQNIER (UniProt O95714),0.0878,-0.0956
HIRA_P54198_867_QDSLAQCADFR (UniProt P54198),0.0563,-0.0265
HK2_P52789_386_SASLCAATLAAVLQR (UniProt P52789),-0.197,0.107
HK1_P19367_813_AILQQLGLNSTCDDSILVK (UniProt P19367),0.12,0.0879
HEATR1_Q9H583_631_SGICSLHPLLR (UniProt Q9H583),0.186,0.109

More entries follow:

Target	probe-labelled cysteine peptide fold change (10 µM)	probe-labelled cysteine peptide fold change (50 µM)
HDAC6_Q9UBN7_539_PATEAELLTCHSAEYVGHLR (UniProt Q9UBN7)	0.254	-0.00904
HLA-C_P04222_364_GGSCSQAASSNSAQGSDESLIACKA (UniProt P04222)	-0.294	-0.243
HERC2_O95714_3016_VYACGEATNGR (UniProt O95714)	0.209	-0.026
HLA-C_P04222_364_GGSCSQAASSNSAQGSDESLIACK (UniProt P04222)	0.168	-0.0156
HAUS8_Q9BT25_182_NLLIMCK (UniProt Q9BT25)	-0.169	-0.102
HERC2_O95714_1201_ERDDHEELAWPGIMESFFTGQNCR (UniProt O95714)	0.231	-0.0033
HDLBP_Q00341_683_SIMEECGGVHIHFPVEGSGSDTVVIR (UniProt Q00341)	0.00431	0.0569
HERC1_Q15751_4811_VDRPYDSLPTSQTCFFQLR (UniProt Q15751)	0.00422	-0.181
HEATR5B_Q9P2D3_1166_LCSDIHDTLGHMLSSLAVEK (UniProt Q9P2D3)	0.0101	-0.181
HERC2_O95714_2881_TININPSDTTVPLLNDCTEYHR (UniProt O95714)	0.0209	0.194
HLTF_Q14527_896_VESIQCFQNTEAGSPTIMLLSLK (UniProt Q14527)	0.0523	-0.00182
HCFC1_P51610_227_LVIYGGMSGCR (UniProt P51610)	-0.0893	-0.202
HCK_P08631_482_MPRPENCPEELYNIMMR (UniProt P08631)	-0.226	-0.0585
HEATR1_Q9H583_2048_HLIPCIAQFSVAMADDSLWK (UniProt Q9H583)	0.378	0.121
HK2_P52789_158_KLPLGFTFSFPCHQTK (UniProt P52789)	-0.00307	-0.123
HEATR1_Q9H583_182_GTLITHCYK (UniProt Q9H583)	0.0157	0.191
HDAC2_Q92769_285_CVEVVK (UniProt Q92769)	0.135	0.259
HGS_O14964_75_NCGQTVHDEVANK (UniProt O14964)	0.0888	0.168
HK1_P19367_133_NQNVHMESEVYDTPENIVHGSGSQLFDHVAECLGDFMEK (UniProt P19367)	0.0399	-0.0719
HECTD1_Q9ULT8_1389_KGSSSSVCSVASSSDISLGSTK (UniProt Q9ULT8)	0.0993	-0.225
HGS_O14964_212_VCEPCYEQLNR (UniProt O14964)	0.214	-0.0373
